Data source: PubChem BioAssay AID743121 (NCATS, 2013)

Test: 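Knock-downs that sensitise breast cancer cells to camptothecin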 (primary screen)
System: MDA-MB-231 cells, a human breast cancer line
Knock-down reagent: single siRNA against human genes, 20 nM siRNA (0.8 pmol per well)
Time to read-out: 120 h (drug added 48 h after transfection, read 72 h later)
Challenge: camptothecin 20 nM (about EC30) for 72 h; vehicle 0.1% DMSO in parallel plates
Read-out: 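Cell viability by ATP luminescence (CellTiter-Glo) as % of non-targeting siRNA wells, and the log2 ratio of viability without drug over viability with camptothecin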
Direction: log2 vehicle/camptothecin viability: higher = stronger sensitisation to camptothecin; viability with camptothecin: higher = more viable cells
Hit rule: 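Active genes have an RSA gene-level p-value below 0.001, computed from the ratios of their separate siRNAs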
In all, the deposit lists about 26,000 reagents; below is an unselected part. 167 of them (0.63%) count as active. 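Calls are per gene from RSA p-values that are not deposited; an individual active-marked siRNA can sensitise only weakly.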 Unmarked entries are inactive. The numbers tell different reagents against one gene apart. Further read-outs or replicates are left out here. Reagent sequences are not shown.

| Target gene | reagent | log2 vehicle/camptothecin viability | viability with camptothecin (% of control) |
| --- | --- | --- | --- |
| PLXNB2 (plexin B2) | 1 | -0.615 | 55.7 |
| PLXNB2 (plexin B2) | 2 | 0.0221 | 37.9 |
| PLXNB2 (plexin B2) | 3 | -0.187 | 46.8 |
| PLXNB2 (plexin B2) | 4 | -0.428 | 40.9 |
| EPHA5 (EPH receptor A5) | 1 | -0.185 | 131 |
| EPHA5 (EPH receptor A5) | 2 | -0.222 | 48.4 |
| EPHA5 (EPH receptor A5) | 3 | -0.1 | 24.2 |
| EPHA5 (EPH receptor A5) | 4 | -0.54 | 32.5 |
| MME (membrane metalloendopeptidase) | 1 | 0.241 | 66.1 |
| MME (membrane metalloendopeptidase) | 2 | -0.381 | 52.7 |
| MME (membrane metalloendopeptidase) | 3 | -0.0957 | 55.1 |
| MME (membrane metalloendopeptidase) | 4 | 0.00855 | 34.3 |
| CD34 (CD34 molecule) | 1 | 0.485 | 64.7 |
| CD34 (CD34 molecule) | 2 | -0.391 | 104 |
| CD34 (CD34 molecule) | 3 | 0.809 | 44.4 |
| CD34 (CD34 molecule) | 4 | -0.0111 | 72.7 |
| PARPBP (PARP1 binding protein) | 1 | 0.0902 | 35.6 |
| PARPBP (PARP1 binding protein) | 2 | 0.206 | 67.9 |
| PARPBP (PARP1 binding protein) | 3 | -0.496 | 54.1 |
| PTP4A2 (protein tyrosine phosphatase 4A2) | 1 | -0.0113 | 62.6 |
| PTP4A2 (protein tyrosine phosphatase 4A2) | 2 | -0.185 | 62.4 |
| PTP4A2 (protein tyrosine phosphatase 4A2) | 3 | -0.379 | 53.1 |
| PTP4A2 (protein tyrosine phosphatase 4A2) | 4 | -0.401 | 57.3 |
| CTSD (cathepsin D) | 1 | -0.323 | 85 |
| CTSD (cathepsin D) | 2 | -0.604 | 46.3 |
| CTSD (cathepsin D) | 3 | -0.517 | 113 |
| ANAPC10 (anaphase promoting complex subunit 10) | 1 | 0.465 | 74.8 |
| ANAPC10 (anaphase promoting complex subunit 10) | 2 | -0.0454 | 87 |
| ANAPC10 (anaphase promoting complex subunit 10) | 3 | -0.776 | 61 |
| ANAPC10 (anaphase promoting complex subunit 10) | 4 | -0.23 | 70.3 |
| SERPINE1 (serpin family E member 1) | 1 | 0.668 | 67.9 |
| SERPINE1 (serpin family E member 1) | 2 | -0.244 | 104 |
| SERPINE1 (serpin family E member 1) | 3 | 0.095 | 88.2 |
| SERPINE1 (serpin family E member 1) | 4 | -0.198 | 96.9 |
| SACK1D (scaffolding CK1 anchoring protein D) | 1 | -0.291 | 79.7 |
| SACK1D (scaffolding CK1 anchoring protein D) | 2 | -0.0853 | 103 |
| SACK1D (scaffolding CK1 anchoring protein D) | 3 | 1.53 | 15 |
| SACK1D (scaffolding CK1 anchoring protein D) | 4 | 0.111 | 70.8 |
| AKAP1 (A-kinase anchoring protein 1) | 1 | -0.0367 | 99 |
| AKAP1 (A-kinase anchoring protein 1) | 2 | 0.0483 | 100 |
| AKAP1 (A-kinase anchoring protein 1) | 3 | -0.349 | 106 |
| AKAP1 (A-kinase anchoring protein 1) | 4 | -0.00448 | 90.3 |
| GPR68 (G protein-coupled receptor 68) | 1 | -0.488 | 93.9 |
| GPR68 (G protein-coupled receptor 68) | 2 | 0.269 | 74.5 |
| GPR68 (G protein-coupled receptor 68) | 3 | -0.111 | 74.2 |
| GPR68 (G protein-coupled receptor 68) | 4 | -0.162 | 42.6 |
| TACR1 (tachykinin receptor 1) | 1 | -0.231 | 51.3 |
| TACR1 (tachykinin receptor 1) | 2 | -0.193 | 73.9 |
| TACR1 (tachykinin receptor 1) | 3 | -0.537 | 94.7 |
| TACR1 (tachykinin receptor 1) | 4 | 0.371 | 45.2 |
| NR2C1 (nuclear receptor subfamily 2 group C member 1) | 1 | -0.0464 | 81.1 |
| NR2C1 (nuclear receptor subfamily 2 group C member 1) | 2 | -0.934 | 67.7 |
| NR2C1 (nuclear receptor subfamily 2 group C member 1) | 3 | -0.239 | 67.7 |
| NR2C1 (nuclear receptor subfamily 2 group C member 1) | 4 | -0.323 | 125 |
| IP6K1 (inositol hexakisphosphate kinase 1) | 1 | -0.404 | 100 |
| IP6K1 (inositol hexakisphosphate kinase 1) | 2 | 0.131 | 59.6 |
| IP6K1 (inositol hexakisphosphate kinase 1) | 3 | 0.0122 | 18.3 |
| IP6K1 (inositol hexakisphosphate kinase 1) | 4 | -0.00308 | 48.8 |
| BTN3A3 (butyrophilin subfamily 3 member A3) | 1 | -0.0806 | 93 |
| BTN3A3 (butyrophilin subfamily 3 member A3) | 2 | 0.0369 | 84.9 |
| BTN3A3 (butyrophilin subfamily 3 member A3) | 3 | -0.16 | 91.2 |
| BTN3A3 (butyrophilin subfamily 3 member A3) | 4 | 0.155 | 93.6 |
| SCNN1G (sodium channel epithelial 1 subunit gamma) | 1 | -0.477 | 77.5 |
| SCNN1G (sodium channel epithelial 1 subunit gamma) | 2 | 0.103 | 68.1 |
| SCNN1G (sodium channel epithelial 1 subunit gamma) | 3 | -0.314 | 83.9 |
| CERS6 (ceramide synthase 6) | 1 | -0.289 | 75.1 |
| CERS6 (ceramide synthase 6) | 2 | -0.124 | 87.1 |
| CERS6 (ceramide synthase 6) | 3 | 0.716 | 38.8 |
